Measured values reported in the supplement of paper PMC10849652.
The other results are listed elsewhere or left out.

By UniProt entry, the sequences of proteins in these tests, tags left out. Where a name states a change or a piece, a line headed by the entry shows the natural chain unless it says otherwise.
UniProt Q14978: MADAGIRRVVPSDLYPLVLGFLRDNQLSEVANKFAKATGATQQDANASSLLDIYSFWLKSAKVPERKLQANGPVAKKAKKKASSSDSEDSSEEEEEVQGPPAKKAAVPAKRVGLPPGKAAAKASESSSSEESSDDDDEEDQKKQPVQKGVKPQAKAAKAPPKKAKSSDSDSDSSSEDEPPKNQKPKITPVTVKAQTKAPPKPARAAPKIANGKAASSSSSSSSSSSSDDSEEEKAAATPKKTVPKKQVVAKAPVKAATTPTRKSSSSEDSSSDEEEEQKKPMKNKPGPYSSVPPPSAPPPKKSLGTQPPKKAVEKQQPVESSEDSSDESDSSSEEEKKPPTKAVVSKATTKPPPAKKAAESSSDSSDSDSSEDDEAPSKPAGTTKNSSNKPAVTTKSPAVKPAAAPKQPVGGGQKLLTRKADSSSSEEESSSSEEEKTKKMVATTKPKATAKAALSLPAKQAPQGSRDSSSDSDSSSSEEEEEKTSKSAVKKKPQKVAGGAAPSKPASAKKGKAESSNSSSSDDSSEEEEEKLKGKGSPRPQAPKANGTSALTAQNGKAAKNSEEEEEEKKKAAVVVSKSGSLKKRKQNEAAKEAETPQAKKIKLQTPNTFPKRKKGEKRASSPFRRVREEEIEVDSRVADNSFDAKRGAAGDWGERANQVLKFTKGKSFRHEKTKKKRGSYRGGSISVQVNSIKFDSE
UniProt P61916: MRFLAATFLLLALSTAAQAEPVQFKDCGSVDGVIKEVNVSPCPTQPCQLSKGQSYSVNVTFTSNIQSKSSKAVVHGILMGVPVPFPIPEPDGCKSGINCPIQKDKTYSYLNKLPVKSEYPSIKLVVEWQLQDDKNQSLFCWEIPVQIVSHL
UniProt P24468: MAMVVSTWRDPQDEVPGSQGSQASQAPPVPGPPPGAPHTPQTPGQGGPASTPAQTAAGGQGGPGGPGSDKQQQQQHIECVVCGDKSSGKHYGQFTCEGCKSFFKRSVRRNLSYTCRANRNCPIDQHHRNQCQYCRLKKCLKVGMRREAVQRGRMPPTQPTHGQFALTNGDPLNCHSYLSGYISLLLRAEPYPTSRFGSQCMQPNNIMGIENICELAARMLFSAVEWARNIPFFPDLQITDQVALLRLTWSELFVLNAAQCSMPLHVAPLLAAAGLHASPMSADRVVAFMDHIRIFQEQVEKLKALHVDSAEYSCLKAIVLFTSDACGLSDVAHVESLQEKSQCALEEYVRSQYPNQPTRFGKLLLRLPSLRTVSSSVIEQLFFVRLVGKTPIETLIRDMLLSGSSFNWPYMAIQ
UniProt Q9UFN0: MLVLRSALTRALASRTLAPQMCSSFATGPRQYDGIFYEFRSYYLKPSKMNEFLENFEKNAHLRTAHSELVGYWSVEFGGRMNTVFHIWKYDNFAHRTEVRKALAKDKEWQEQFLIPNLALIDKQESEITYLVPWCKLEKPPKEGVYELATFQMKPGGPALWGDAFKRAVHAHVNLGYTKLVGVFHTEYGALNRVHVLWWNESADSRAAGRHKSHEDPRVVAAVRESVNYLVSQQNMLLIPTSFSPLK
UniProt Q15155: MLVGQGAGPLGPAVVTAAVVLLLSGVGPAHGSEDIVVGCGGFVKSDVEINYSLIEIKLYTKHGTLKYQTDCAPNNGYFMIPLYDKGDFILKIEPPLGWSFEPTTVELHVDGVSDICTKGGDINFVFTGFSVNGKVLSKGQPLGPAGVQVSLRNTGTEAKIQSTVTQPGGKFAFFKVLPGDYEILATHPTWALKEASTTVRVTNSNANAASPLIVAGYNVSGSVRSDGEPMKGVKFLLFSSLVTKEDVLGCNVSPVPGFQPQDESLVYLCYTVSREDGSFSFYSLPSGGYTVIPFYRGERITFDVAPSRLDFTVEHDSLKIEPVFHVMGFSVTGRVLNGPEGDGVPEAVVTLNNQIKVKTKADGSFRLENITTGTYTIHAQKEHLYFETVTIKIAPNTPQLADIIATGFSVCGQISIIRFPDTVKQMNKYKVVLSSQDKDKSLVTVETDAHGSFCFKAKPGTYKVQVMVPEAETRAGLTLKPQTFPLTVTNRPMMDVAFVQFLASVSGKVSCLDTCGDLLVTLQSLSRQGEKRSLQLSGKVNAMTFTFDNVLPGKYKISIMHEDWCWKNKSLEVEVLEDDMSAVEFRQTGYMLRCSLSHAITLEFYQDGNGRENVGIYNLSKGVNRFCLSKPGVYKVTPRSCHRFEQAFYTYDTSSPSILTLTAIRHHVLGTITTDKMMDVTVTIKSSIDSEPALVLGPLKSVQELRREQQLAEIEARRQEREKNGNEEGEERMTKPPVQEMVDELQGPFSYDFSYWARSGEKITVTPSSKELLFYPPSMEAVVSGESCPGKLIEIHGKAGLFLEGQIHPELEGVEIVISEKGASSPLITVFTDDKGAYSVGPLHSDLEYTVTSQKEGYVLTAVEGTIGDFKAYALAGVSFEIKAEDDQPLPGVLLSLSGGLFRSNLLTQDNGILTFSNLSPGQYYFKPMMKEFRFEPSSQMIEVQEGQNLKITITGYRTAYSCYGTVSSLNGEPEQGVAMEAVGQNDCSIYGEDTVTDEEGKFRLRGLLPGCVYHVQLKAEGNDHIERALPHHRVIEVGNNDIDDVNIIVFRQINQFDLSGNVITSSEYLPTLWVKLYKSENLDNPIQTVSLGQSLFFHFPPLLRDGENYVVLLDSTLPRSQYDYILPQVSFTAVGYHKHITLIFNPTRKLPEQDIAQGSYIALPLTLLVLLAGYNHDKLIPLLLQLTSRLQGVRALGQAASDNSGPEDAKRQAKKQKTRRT
UniProt P06748, whole entry, looked up: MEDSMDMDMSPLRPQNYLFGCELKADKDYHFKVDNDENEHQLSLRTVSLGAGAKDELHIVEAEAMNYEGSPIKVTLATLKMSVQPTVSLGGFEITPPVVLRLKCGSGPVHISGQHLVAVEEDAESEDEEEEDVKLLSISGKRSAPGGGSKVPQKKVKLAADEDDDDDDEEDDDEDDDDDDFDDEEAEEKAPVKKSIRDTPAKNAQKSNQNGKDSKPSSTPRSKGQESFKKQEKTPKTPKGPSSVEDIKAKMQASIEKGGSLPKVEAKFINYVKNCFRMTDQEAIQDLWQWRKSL
UniProt Q9NX24: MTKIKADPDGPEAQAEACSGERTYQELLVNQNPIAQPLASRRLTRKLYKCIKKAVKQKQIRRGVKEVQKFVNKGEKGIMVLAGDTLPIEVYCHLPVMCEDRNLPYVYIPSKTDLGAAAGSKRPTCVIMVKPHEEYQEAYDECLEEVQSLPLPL
UniProt P21359: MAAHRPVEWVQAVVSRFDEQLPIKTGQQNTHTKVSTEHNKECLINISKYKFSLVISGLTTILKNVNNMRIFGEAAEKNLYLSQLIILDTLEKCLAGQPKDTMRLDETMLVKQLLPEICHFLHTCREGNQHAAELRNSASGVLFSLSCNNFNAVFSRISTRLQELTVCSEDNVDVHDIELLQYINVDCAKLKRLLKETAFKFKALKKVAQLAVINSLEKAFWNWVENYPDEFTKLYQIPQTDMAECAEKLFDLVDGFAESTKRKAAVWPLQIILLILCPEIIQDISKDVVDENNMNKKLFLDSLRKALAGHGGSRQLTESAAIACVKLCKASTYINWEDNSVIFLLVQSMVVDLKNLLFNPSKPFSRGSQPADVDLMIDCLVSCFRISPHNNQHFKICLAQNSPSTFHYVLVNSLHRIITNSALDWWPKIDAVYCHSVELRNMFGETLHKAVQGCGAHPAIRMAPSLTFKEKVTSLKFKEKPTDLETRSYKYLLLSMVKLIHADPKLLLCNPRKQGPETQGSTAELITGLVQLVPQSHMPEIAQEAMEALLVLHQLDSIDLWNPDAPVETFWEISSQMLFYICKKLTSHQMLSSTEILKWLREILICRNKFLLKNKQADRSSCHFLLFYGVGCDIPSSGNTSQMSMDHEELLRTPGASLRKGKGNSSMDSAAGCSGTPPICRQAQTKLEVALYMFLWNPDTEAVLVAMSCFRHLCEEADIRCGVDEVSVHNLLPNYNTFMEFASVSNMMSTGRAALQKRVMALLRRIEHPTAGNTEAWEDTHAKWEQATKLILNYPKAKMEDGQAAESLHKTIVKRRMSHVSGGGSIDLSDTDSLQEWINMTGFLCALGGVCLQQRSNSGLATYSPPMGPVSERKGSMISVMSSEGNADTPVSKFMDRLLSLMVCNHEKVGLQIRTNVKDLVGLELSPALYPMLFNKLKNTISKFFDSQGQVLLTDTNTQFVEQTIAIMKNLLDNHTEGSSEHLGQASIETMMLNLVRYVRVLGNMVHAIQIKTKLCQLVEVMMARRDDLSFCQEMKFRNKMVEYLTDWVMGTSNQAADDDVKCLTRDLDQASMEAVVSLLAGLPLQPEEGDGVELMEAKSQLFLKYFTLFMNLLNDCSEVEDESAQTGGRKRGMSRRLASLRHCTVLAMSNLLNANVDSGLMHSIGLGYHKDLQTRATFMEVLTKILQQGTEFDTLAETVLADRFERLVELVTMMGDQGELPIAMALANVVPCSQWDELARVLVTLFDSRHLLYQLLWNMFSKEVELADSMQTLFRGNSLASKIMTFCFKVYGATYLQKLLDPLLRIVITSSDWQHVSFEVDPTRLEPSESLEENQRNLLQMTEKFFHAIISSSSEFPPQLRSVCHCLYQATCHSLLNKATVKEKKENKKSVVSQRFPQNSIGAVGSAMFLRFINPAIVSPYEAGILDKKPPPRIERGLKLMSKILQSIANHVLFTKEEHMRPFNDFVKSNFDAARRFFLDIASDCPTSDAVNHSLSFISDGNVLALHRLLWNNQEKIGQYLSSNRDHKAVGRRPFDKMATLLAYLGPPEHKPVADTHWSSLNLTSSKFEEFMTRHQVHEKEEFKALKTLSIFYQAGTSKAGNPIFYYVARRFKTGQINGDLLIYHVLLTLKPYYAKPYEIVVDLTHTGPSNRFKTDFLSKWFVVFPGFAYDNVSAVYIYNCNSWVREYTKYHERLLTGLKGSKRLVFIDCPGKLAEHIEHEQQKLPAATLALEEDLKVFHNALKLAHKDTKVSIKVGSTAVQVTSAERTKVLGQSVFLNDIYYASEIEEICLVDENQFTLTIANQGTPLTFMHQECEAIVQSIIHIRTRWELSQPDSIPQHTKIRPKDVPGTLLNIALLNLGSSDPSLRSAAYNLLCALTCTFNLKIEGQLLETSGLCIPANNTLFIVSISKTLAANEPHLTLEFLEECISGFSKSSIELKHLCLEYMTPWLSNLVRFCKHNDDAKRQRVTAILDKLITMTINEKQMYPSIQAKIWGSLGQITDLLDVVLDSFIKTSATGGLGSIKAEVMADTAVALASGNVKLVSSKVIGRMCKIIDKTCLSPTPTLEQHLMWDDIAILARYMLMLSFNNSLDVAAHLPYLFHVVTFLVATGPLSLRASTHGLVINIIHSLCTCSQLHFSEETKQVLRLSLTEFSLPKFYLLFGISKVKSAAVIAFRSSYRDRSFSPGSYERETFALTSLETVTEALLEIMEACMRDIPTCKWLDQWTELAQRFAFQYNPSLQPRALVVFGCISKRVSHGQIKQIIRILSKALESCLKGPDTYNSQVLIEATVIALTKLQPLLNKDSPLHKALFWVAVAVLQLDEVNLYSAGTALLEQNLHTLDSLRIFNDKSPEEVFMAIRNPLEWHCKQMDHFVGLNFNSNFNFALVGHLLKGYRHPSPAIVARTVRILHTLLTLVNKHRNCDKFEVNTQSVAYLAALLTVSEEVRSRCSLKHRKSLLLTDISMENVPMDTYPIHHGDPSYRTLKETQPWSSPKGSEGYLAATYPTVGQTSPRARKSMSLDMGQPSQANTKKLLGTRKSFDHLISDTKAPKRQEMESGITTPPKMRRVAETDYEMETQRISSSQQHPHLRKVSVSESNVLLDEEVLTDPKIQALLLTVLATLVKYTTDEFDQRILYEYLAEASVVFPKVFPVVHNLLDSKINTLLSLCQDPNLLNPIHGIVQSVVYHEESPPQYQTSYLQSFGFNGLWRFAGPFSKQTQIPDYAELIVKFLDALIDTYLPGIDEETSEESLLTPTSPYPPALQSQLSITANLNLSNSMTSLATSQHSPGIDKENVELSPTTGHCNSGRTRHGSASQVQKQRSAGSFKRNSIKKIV
UniProt O60936: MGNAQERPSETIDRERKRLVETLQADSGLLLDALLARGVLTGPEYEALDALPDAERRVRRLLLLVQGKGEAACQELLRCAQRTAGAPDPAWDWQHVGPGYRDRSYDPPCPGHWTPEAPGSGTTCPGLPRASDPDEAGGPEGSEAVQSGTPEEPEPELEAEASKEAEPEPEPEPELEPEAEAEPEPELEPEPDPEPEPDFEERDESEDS

Columns and labels:
Assay in all cases: log2 fold change, soluble protein after heating vs DMSO (PISA); higher = thermal stabilisation; K562 cells, 10 uM, 30 min; active = over 0.2 and 3.5 SD of the protein, either way, in both replicates (recomputed)
[1] = compound: COC1=CC=C(C=C1)CN2C=CC3=C2C=C(C=C3)C(=O)NO
Summary of the method: (§1)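 For each measurement, 10 μM compound was applied for 30 min to K562 cells at 2×10^6 cells/mL. Aliquots were heated for 3 min across 48°C-58°C, pooled, and extracted in PBS with 0.5% NP-40 at 4°C; the supernatant after 21,000xg for 90 min was soluble protein. This was quantified by TMTpro 16plex LC-MS/MS with channel sums equalised, and thermal stability was reported relative to control samples from duplicates, on a log2 fold-change scale.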

filanesib = compound: CON(C)C(=O)N1N=C(c2cc(F)ccc2F)S[C@@]1(CCCN)c1ccccc1 [filanesib]
Summary of the method: as §1

zotarolimus = compound: CO[C@H]1C[C@@H]2CC[C@@H](C)[C@@](O)(O2)C(=O)C(=O)N2CCCC[C@H]2C(=O)O[C@H]([C@H](C)C[C@@H]2CC[C@H](n3cnnn3)[C@H](OC)C2)CC(=O)[C@H](C)/C=C(\C)[C@@H](O)[C@@H](OC)C(=O)[C@H](C)C[C@H](C)/C=C/C=C/C=C/1C [zotarolimus]
Summary of the method: as §1

idasanutlin = compound: COc1cc(C(=O)O)ccc1NC(=O)[C@@H]1N[C@@H](CC(C)(C)C)[C@](C#N)(c2ccc(Cl)cc2F)[C@H]1c1cccc(Cl)c1F [idasanutlin]
Summary of the method: as §1

alisertib = compound: COc1cc(Nc2ncc3c(n2)-c2ccc(Cl)cc2C(c2c(F)cccc2OC)=NC3)ccc1C(=O)O [alisertib]
Summary of the method: as §1

[2] = compound: COc1cc2nc(-c3cc(F)ccc3O)nc(N[C@@H]3CNC[C@H]3C(C)(C)O)c2cc1OC
Summary of the method: as §1

gefitinib = compound: COc1cc2ncnc(Nc3ccc(F)c(Cl)c3)c2cc1OCCCN1CCOCC1 [gefitinib]
Summary of the method: as §1

[3] = compound: COc1cccc2cc(-c3nc([C@H]4CC[C@H](C(=O)O)CC4)n4ncnc(N)c34)[nH]c12
Summary of the method: as §1

lapatinib = compound: CS(=O)(=O)CCNCc1ccc(-c2ccc3ncnc(Nc4ccc(OCc5cccc(F)c5)c(Cl)c4)c3c2)o1 [lapatinib]
Summary of the method: as §1

pictilisib = compound: CS(=O)(=O)N1CCN(Cc2cc3nc(-c4cccc5[nH]ncc45)nc(N4CCOCC4)c3s2)CC1 [pictilisib]
Summary of the method: as §1

Measured: log2 fold change

NOLC1 isoform 2 (UniProt Q14978)
inactive: [1] 0.016 | filanesib 0.21 | zotarolimus 0.015 | idasanutlin 0.199 | alisertib -0.112 | [2] -0.093 | gefitinib 0.041 | [3] 0.104 | lapatinib 0.052 | pictilisib 0.056

NFYC (UniProt Q13952)
inactive: [1] -0.026 | filanesib -0.023 | zotarolimus 0.004 | idasanutlin -0.065 | alisertib -0.036 | [2] 0.017 | gefitinib -0.018 | [3] 0.127 | lapatinib 0.033 | pictilisib 0.092

NES (UniProt P48681)
inactive: [1] 0.009 | filanesib 0.299 | zotarolimus -0.019 | idasanutlin 0.192 | alisertib -0.103 | [2] -0.134 | [3] -0.068 | lapatinib -0.029 | pictilisib 0.017

NRAS (UniProt P01111)
inactive: [1] -0.014 | filanesib 0.053 | zotarolimus -0.015 | idasanutlin 0.009 | alisertib -0.074 | [2] 0.046 | gefitinib 0 | [3] 0.009 | lapatinib -0.013 | pictilisib -0.05

NPC2 (UniProt P61916)
inactive: [1] 0.04 | filanesib -0.09 | zotarolimus -0.059 | idasanutlin 0.018 | alisertib 0.028 | [2] -0.002 | gefitinib 0.031 | [3] -0.028 | lapatinib -0.02 | pictilisib -0.042

NLE1 (UniProt Q9NVX2)
inactive: [1] 0.004 | filanesib -0.042 | zotarolimus 0.022 | idasanutlin -0.058 | alisertib -0.052 | [2] -0.011 | gefitinib 0.021 | [3] 0.057 | lapatinib 0.035 | pictilisib 0.074

NR2F2 (UniProt P24468)
inactive: [1] -0.038 | filanesib 0.022 | zotarolimus -0.02 | idasanutlin -0.146 | alisertib -0.051 | [2] 0.017 | gefitinib 0.039 | [3] -0.006 | lapatinib 0.029 | pictilisib 0.007

NIPSNAP3A (UniProt Q9UFN0)
inactive: [1] 0.023 | filanesib -0.042 | zotarolimus -0.022 | idasanutlin -0.032 | alisertib -0.021 | [2] -0.016 | gefitinib 0.01 | [3] 0.063 | lapatinib 0.013 | pictilisib -0.003

NOMO1 (UniProt Q15155)
inactive: [1] -0.029 | filanesib 0.121 | zotarolimus -0.169 | idasanutlin 0 | [2] -0.049 | gefitinib 0.029 | lapatinib 0.019 | pictilisib -0.006

Copied from above (three entries):
NOLC1 isoform 2 (UniProt Q14978)
inactive: [1] 0.016 | filanesib 0.21 | zotarolimus 0.015 | idasanutlin 0.199 | alisertib -0.112 | [2] -0.093 | gefitinib 0.041 | [3] 0.104 | lapatinib 0.052 | pictilisib 0.056

NFYC (UniProt Q13952)
inactive: [1] -0.026 | filanesib -0.023 | zotarolimus 0.004 | idasanutlin -0.065 | alisertib -0.036 | [2] 0.017 | gefitinib -0.018 | [3] 0.127 | lapatinib 0.033 | pictilisib 0.092

NES (UniProt P48681)
inactive: [1] 0.009 | filanesib 0.299 | zotarolimus -0.019 | idasanutlin 0.192 | alisertib -0.103 | [2] -0.134 | [3] -0.068 | lapatinib -0.029 | pictilisib 0.017

Additional records.

NPM1 (UniProt P06748)
inactive: [1] -0.014 | filanesib 0.392 | zotarolimus 0.074 | idasanutlin 0.176 | alisertib -0.092 | [2] -0.137 | gefitinib -0.002 | [3] -0.113 | lapatinib 0.063 | pictilisib -0.143

NFE2 (UniProt Q16621)
inactive: [1] 0.135 | filanesib 0 | zotarolimus 0.146 | idasanutlin 0.023 | alisertib -0.056 | [2] -0.032 | gefitinib -0.008 | [3] 0.014 | lapatinib 0.007 | pictilisib 0.05

NHP2 (UniProt Q9NX24)
inactive: [1] -0.001 | filanesib 0.185 | zotarolimus -0.021 | idasanutlin 0.154 | alisertib -0.118 | [2] 0.008 | gefitinib 0.044 | [3] 0.032 | lapatinib 0.017 | pictilisib -0.038

NF1 (UniProt P21359)
inactive: [1] -0.278 | filanesib 0.171 | zotarolimus -0.12 | idasanutlin -0.074 | alisertib 0.09 | [2] 0.245 | gefitinib 0.046 | [3] 0.006 | lapatinib -0.327 | pictilisib 0.163

NOL3 isoform 3 (UniProt O60936)
inactive: [1] -0.12 | filanesib 0.102 | zotarolimus -0.103 | alisertib 0.104 | [2] 0.043 | gefitinib -0.121 | [3] -0.01 | lapatinib 0
